Results: PMC5570892, “Indole-based perenosins as highly potent HCl transporters and potential anti-cancer agents” (Scientific Reports, 2017)
Values joined by “and” are separate entries in the source; they are usually repeats but may differ in a detail not shown here. Identical values can stand only once.

How the values were obtained:
MDA-MB-231 cells = experiment: MTT cell viability assay; type: cell-based, human; settings: IC50 (24 h) divided IC50 (72 h)
Experimental: Herein, we carried out further in vitro studies at the University of Barcelona for the full library of perenosins. Single dose screening for cell viability using the methylthiazoletetrazolium (MTT) colorimetric assay over five different cell lines (cancer cells MCF-7, MDA-MB-231, A549 and SW620, and non-cancerous human cells MCF-10A) was conducted.
While perenosin 5, with pentyl substituent at R3, has similar cell viability effects as 1d, bis-indole perenosin 7 with pentyl substituent at R1 has a moderate degree of late onset by a factor of 7.
S11.1 Cell Lines and Culture Conditions
The human cell lines were obtained from the American Type Culture Collection (ATCC, Manassas VA). Breast adenocarcinoma MDA-MB-231 and MCF-7 cells were maintained in DMEM:F12 media (1:1; Biological Industries, Beit Haemek, Israel), and 10 µg/ml insulin and 50 µM sodium pyruvate from Sigma-Aldrich Chemical Co. (St. Louis, MO) were added to MCF-7 cells. Lung adenocarcinoma A549 and colorectal adenocarcinoma SW620 cells were cultured in DMEM media. All were supplemented with 10% foetal bovine serum (FBS; Invitrogen-Life Technologies, Carlsbad, CA) and 100 U/mL penicillin, 100 µg/mL streptomycin and 2 mM L-glutamine, all from Biological Industries.
Mammary epithelial MCF-10A cells were maintained in DMEM:F12 media supplemented with 5% horse serum (Life Technologies), 20 ng/ml EGF, 0.5 µg/ml Hydrocortisone, 100 ng/ml Cholera toxin, 10 µg/ml insulin all from Sigma-Aldrich and 100 U/ml penicillin, 100 µg/ml streptomycin, and 2 mM L- glutamine (Biological Industries). Cells were grown at 37 °C under a 5% CO2 atmosphere.
S11.2 Cell Viability Assays
Cell viability was evaluated using the methylthiazoletetrazolium (MTT) colorimetric assay. Cancer cells (MCF-7, MDA-MB-231, A549 and SW620) or non-cancerous human cells MCF-10A cells were harvested (10^4 cells/well) in 96-well plates in a final volume of 100 µl and allowed to grow overnight.
After 24 h, vehicle solution (DMSO) or experimental compounds were added at 10 µM (single point experiment) or at different ranging concentrations (0.8-100 µM) to the assay plate and were incubated for 24 or 72 h. Then, 10 µl of MTT (5 mg/ml; Sigma-Aldrich) were added and the plates were incubated for 4 h at 37°C. 100 µl of DMSO (Sigma-Aldrich) were added to dissolve crystals and the reading was taken spectrophotometrically at 570 nm using a multi-well plate reader (Multiskan FC, Thermo Scientific, Waltham, MA, USA). Cell viability and inhibitory concentration (IC) values were obtained using GraphPad Prism v5.0 (Graphpad Software, San Diego, CA, USA). All data are shown as the mean value ± standard deviation (S.D.) of three independent experiments.

[1] = NMDG-Cl assay by HPTS (H^+/Cl^− symport); type: biochemical; settings: for SG chloride selectivity: EC50 in absence of Gra divided by EC50 (Gra)
Experimental: The selectivity for Cl^−>H^+/OH^− transport of the perenosins was quantified using a modified NMDG-Cl assay. Unilamellar vesicles loaded with HPTS (1 mM) and N-methyl-D-glucamine chloride (NMDG-Cl) (100 mM), buffered to pH 7 with HEPES (10 mM) were prepared. Free base NMDG (0.5 M) was added increasing the extravesicular solution to pH 8, and the dissipation of this gradient following the addition of receptors was monitored. Dissipation of pH gradient indicates H^+/Cl^− symport (or the functionally equivalent OH^−/Cl^− exchange) mediated by perenosins. Gramicidin D (Gra) is a proton channel added to facilitate H^+ transport. The addition of oleic acid (OA), a naturally occurring fatty acid found in cell membranes, allowed the investigation of the enhancement in H^+/Cl^− symport, in the presence of oleic acid. Anion transporters can assist the fatty acid flip-flop mechanism by taking on the role of a flippase for fatty acid anions via binding to the anionic carboxylate head group, masking the charge and allowing rapid passage of the head group through the lipid bilayer. This in turn accelerates the natural proton transport mediated by fatty acids in biological membranes.
For all cases EC50 values were obtained from dose-response experiments and subsequent Hill analysis (see Supplementary Information). Chloride selectivity was then quantified to give a selectivity factor (SG), shown in Table 2, using the ratio of the EC50 values. From the previous cationophore coupled assays, it was evident that the capability of perenosins to facilitate electrogenic chloride transport is negligible, therefore an absence in selectivity for Cl^−>H^+/OH^− was expected. […] FOA values for the overall H^+/Cl^− cotransport rate were calculated for compounds 1d and 2–6 in the presence of OA and are also shown in Table 2. […] In the presence of fatty acids, an alternative pathway that involves the diffusion of the fatty acid complex and free fatty acids could replace this step. […] This may be likely due to the competitive binding of the receptors to the carboxylate head group so inhibiting chloride binding and transport.
S10.8. General Procedure for the HPTS Assay
(§1) Unilamellar vesicles were prepared using previously reported literature procedures16. A lipid film of POPC (1-palmitoyl-2-oleoyl-sn-glycero-3-phosphocholine) was prepared from a chloroform solution under reduced pressure and then dried under vacuum for 4 or more hours. The lipid film was rehydrated by vortexing with an internal solution containing HPTS (1 mM). The lipid suspension was then subjected to 9 freeze-thaw cycles and left to rest at room temperature for 30 minutes. After this, the suspension was extruded 25 times through a 200 nm polycarbonate membrane resulting in unilamellar vesicles of a mean diameter of 200 nm. The un-encapsulated HPTS was removed by size exclusion chromatography using a sephadex G-25 column and an external solution eluent that does not contain HPTS. The lipid solution obtained after dialysis was diluted to a standard volume (usually 10 mL) with the external buffered solution to obtain a lipid stock of known concentration.
In each experiment identical internal and external solutions were used with various salts (NMDG -Cl or sodium gluconate) buffered with HEPES (10 mM) to pH 7.0, and are detailed below.
The lipid stock was diluted with the external buffer solution to a standard volume (2.5 mL), to afford a solution with a lipid concentration of 0.1 mM. The compounds were added as a DMSO solution (10 μL) and when an assisting ionophore (gramicidin) or oleic acid (a naturally occurring monosaturated fatty acid) was used this was also added as a DMSO solution (5 μL, 0.1 mol% or 2 mol% respectively (with respect to lipid)). To start the experiment, after the addition of the compounds, a base pulse (25 μL, of NMDG or TBAOH (0.5 M)) was spiked in to generate a pH gradient across the membrane. […]

[2] = Cl^−/NO3^− antiport assay by chloride ISE; type: biochemical; settings: Hill analysis
Experimental: The chloride transport properties of the new perenosins 2–8 were compared to 1d using the chloride/nitrate exchange assay monitored by a chloride ion selective electrode (ISE). Typically, unilamellar vesicles were prepared from POPC, containing an intravesicular NaCl solution (489 mM with 5 mM phosphate buffer at pH 7.2) suspended in a NaNO3 solution (489 mM with 5 mM phosphate buffer at pH 7.2). All perenosins were added as a DMSO solution and the rate of chloride efflux was monitored by the chloride ISE. At the end of the experiment (300 s), detergent was added to lyse the vesicles and obtain the 100% chloride efflux reading. Dose response studies of 1d and 2–8 were performed to allow Hill analysis, giving the EC50 values and Hill coefficients as shown in Table 2.
The external pH of cancer cells (pH 6.7[53]) is slightly acidic compared to healthy cells (pH 7.2–7.5[54]). […] To investigate the effect of pH on the chloride transport capabilities unilamellar vesicles were loaded with NaCl (489 mM) and suspended in NaNO3 (489 mM), and the internal and external solutions were buffered to pH 4.5, 6.5, 7.2 and 10 using various buffers (more detail can be found in the Supplementary Information). Compounds 1d and 2–8 were then tested in a single point screen at 0.1 mol% loading (Fig. 5). At pH 4.5 the perenosins exist predominantly as the active protonated species and so all compounds show moderate to high chloride transport properties, whereas, there is no chloride transport observed at pH 10 (see Supplementary Information for results).
S10. Anion Transport Studies
S10.1. General Procedure for the ISE Assay
as §1, with “procedures7-9.” for “procedures16.”, “(1-palmitoyl-2-oleoyl-sn-glycero-3-phosphocholine) or POPC:cholesterol (7:3 molar ratio)” for “(1-palmitoyl-2-oleoyl-sn-glycero-3-phosphocholine)”, “of buffered metal chloride salt (usually 489 mM MCl).” for “containing HPTS (1 mM).”, “large unilamellar vesicles were dialysed in the corresponding” for “un-encapsulated HPTS was removed by size exclusion chromatography using a sephadex G-25 column and an”, “for a minimum of 2 hours to remove any unencapsulated metal salts.” for “eluent that does not contain HPTS.”
Internal and external solutions vary for each experiment and are detailed for each. Experiments conducted at different pHs required different buffers (citrate buffer for pH 4.5; phosphate buffer for pH 6.5 and pH 7.2; and ethanolamine buffer for pH 10) however, a constant buffer concentration (5 mM) and total ionic strength (500 mM) was maintained.
The lipid stock was diluted with the external buffer solution to a standard volume (5 mL), to afford a solution with a lipid concentration of 1 mM. The compounds were added as a DMSO solution (10 μL) at the start of the experiment and the resulting chloride efflux was monitored using a chloride selective electrode over 5 minutes. After this time, detergent (50 μL of Triton X-100 (11 w%) in H2O:DMSO (7:1 v/v)) was added to lyse the vesicles and after 7 minutes a final chloride efflux reading was taken. […]

[3] = 1H NMR dilution studies (self-association); type: physicochemical; settings: MeCN-d3, NH proton, Nelder-Mead fit

SMILES | FA factor of activity enhancement (MDA-MB-231 cells) | SG chloride selectivity [1] | n (Hill coefficient) Cl^−/NO3^− at pH 7.2 (by ISE) [2] | also measured
Cc1cc(C)c(/C=N/c2cccc3cc[nH]c23)[nH]1 [Perenosin 1a] | 1.6 |  |  | 
Cc1cc(C)c(/C=N/c2cc(C(F)(F)F)cc3cc[nH]c23)[nH]1 [Perenosin 1b] | 1.5 |  |  | 
Cc1cc(/N=C/c2[nH]c(C)cc2C)c2[nH]ccc2c1 [Perenosin 1c] | 1.7 |  |  | 
CCCCCc1cc(/N=C/c2[nH]c(C)cc2C)c2[nH]ccc2c1 [Perenosin 1d] | 1.5 | 1.6 | 1.2 | 
COc1cc(/N=C/c2[nH]c(C)cc2C)c2[nH]ccc2c1 [Perenosin 1e] | 1.2 |  |  | 
CCCCCc1cc2cc(C)cc(/N=C/c3[nH]c(C)cc3C)c2[nH]1 [Perenosin 2] |  | 1.7 | 1.3 | dimerization constant (K d) [3]: 2.2 M⁻¹; equilibrium of aggregation (K e) [3]: 4.39 M⁻¹
CCCCCc1cc2cc(C(F)(F)F)cc(/N=C/c3[nH]c(C)cc3C)c2[nH]1 [Perenosin 3] |  | 1.3 |  | 
CCCc1cc2cc(C)cc(/N=C/c3[nH]c(C)cc3C)c2[nH]1 [Perenosin 4] |  | 1.8 | 1.1 | FOA factor of enhancement ([1]; EC50 in absence of Gra or OA divided by EC50 (OA)): 9 and 8.6
CCCCCc1c(C)[nH]c(/C=N/c2cc(C)cc3cc[nH]c23)c1C [Perenosin 5] | 1.5 | 2.4 | 1.3 | 
CCCCCc1cc2cc(C)cc(/N=C/c3[nH]c(C)c(CCCCC)c3C)c2[nH]1 [Perenosin 6] |  | 1.2 | 0.3 | dimerization constant (K d) [3]: 0.000355 M⁻¹; equilibrium of aggregation (K e) [3]: 0.00071 M⁻¹
CCCCCc1cc(/N=C/c2[nH]c3ccccc3c2C)c2[nH]ccc2c1 [Perenosin 7] | 7 and 6.7 |  |  | 
CCCCCc1cc2cc(C)cc(/N=C/c3[nH]c4ccccc4c3C)c2[nH]1 [Perenosin 8] |  |  |  | dimerization constant (K d) [3]: negligible association
